Reference: patent US20240293418A1, “COMBINATION THERAPY FOR TREATING CANCER” (Epizyme, Inc., priority 2016, published 2024)
Where two headings read alike, the source gives them in different places.

How the values were obtained:
Mino [1] = test: mantle cell lymphoma 7 day co-treatment model; assay type: cell-based; details: Homo sapiens, read-out: Tazemetostat 7 day IC50, data derived from 7 and 9 day combination treatment
MM1R = test: cells; details: MM.1R, 360 h, read-out: Tazemetostat Day 15 IC50
MM1.S [2] = test: 7-day co-treatment combination model (Cell Titer Glo); details: Homo sapiens, 168 h, read-out: 7-day IC50
Z-138 [3] = test: mantle cell lymphoma 7 day co-treatment model; assay type: cell-based; details: Homo sapiens, read-out: Tazemetostat 7 day IC50, data derived from 8 and 9 day combination treatment
MOLP2 = test: cells; details: MOLP-2, 360 h, read-out: Tazemetostat Day 15 IC50
Rec-1 [4] = test: mantle cell lymphoma 7 day pretreatment + 4-day co-treatment model (Cell Titer Glo); details: Homo sapiens, Rec1, 264 h, read-out: Tazemetostat 11-day IC50
KMS12BM = test: cells; details: Homo sapiens, KMS-12-BM, 360 h, read-out: Tazemetostat Day 15 IC50
MM1S = test: cells; details: Homo sapiens, MM1.S, 360 h, read-out: Tazemetostat Day 15 IC50
ARH77 = test: cells; details: Homo sapiens, ARH-77, 360 h, read-out: Tazemetostat Day 15 IC50
MM1.S [5] = test: 7 day pretreatment + 4-day co-treatment combination model (Cell Titer Glo); details: Homo sapiens, 264 h, read-out: 11-day IC50
KMS28BM = test: cells; details: KMS-28BM, 360 h, read-out: Tazemetostat Day 15 IC50
Jeko-1 = test: mantle cell lymphoma 7 day co-treatment model; assay type: cell-based; details: Homo sapiens, JeKo-1, 168 h, read-out: Tazemetostat 7 day IC50
L363 = test: cells; details: Homo sapiens, L-363, 360 h, read-out: Tazemetostat Day 15 IC50
L-363 [6] = system: L-363
LP-1 [7] = test: 7-day co-treatment combination model (Cell Titer Glo); details: Homo sapiens, LP-1, 168 h, read-out: 7-day IC50
JJN3 = test: cells; details: Homo sapiens, JJN-3, 360 h, read-out: Tazemetostat Day 15 IC50
Granta-519 [8] = test: mantle cell lymphoma 7 day co-treatment model; assay type: cell-based; details: Homo sapiens, Granta-519, 168 h, read-out: Tazemetostat 7 day IC50
KMS-28-BM = test: 7-day co-treatment combination model (Cell Titer Glo); details: 168 h, read-out: 7-day IC50
U266 [9] = test: 7 day pretreatment + 4-day co-treatment combination model (Cell Titer Glo); details: Homo sapiens, U-266, 264 h, read-out: 11-day IC50
OPM2 = test: cells; details: Homo sapiens, OPM-2, 360 h, read-out: Tazemetostat Day 15 IC50
Rec-1 [10] = test: mantle cell lymphoma 7 day co-treatment model; assay type: cell-based; details: Homo sapiens, Rec1, 168 h, read-out: Tazemetostat 7 day IC50
Z-138 [11] = test: mantle cell lymphoma 7 day pretreatment + 4-day co-treatment model (Cell Titer Glo); details: Homo sapiens, Z-138, 264 h, read-out: Tazemetostat 11-day IC50
NCIH929 = test: cells; details: Homo sapiens, NCI-H929, 360 h, read-out: Tazemetostat Day 15 IC50
MOLP8 = test: cells; details: Homo sapiens, MOLP-8, 360 h, read-out: Tazemetostat Day 15 IC50
U266 [12] = system: U266
U266B1 = test: cells; details: Multiple myeloma cell, 360 h, read-out: Tazemetostat Day 15 IC50
JVM-2 [13] = test: mantle cell lymphoma 7 day co-treatment model; assay type: cell-based; details: Homo sapiens, JVM-2, 168 h, read-out: Tazemetostat 7 day IC50
L-363 [14] = test: 7 day pretreatment + 4-day co-treatment combination model (Cell Titer Glo); details: Homo sapiens, L-363, 264 h, read-out: 11-day IC50
Maver-1 [15] = test: mantle cell lymphoma 7 day co-treatment model; assay type: cell-based; details: Homo sapiens, Maver1, 168 h, read-out: Tazemetostat 7 day IC50
JVM-2 [16] = test: mantle cell lymphoma 7 day pretreatment + 4-day co-treatment model (Cell Titer Glo); details: Homo sapiens, JVM-2, 264 h, read-out: Tazemetostat 11-day IC50
LP1 = test: cells; details: Homo sapiens, LP-1, 360 h, read-out: Tazemetostat Day 15 IC50
Mino [17] = test: mantle cell lymphoma 7 day pretreatment + 4-day co-treatment model (Cell Titer Glo); details: Homo sapiens, 264 h, read-out: Tazemetostat 11-day IC50
Maver-1 [18] = test: as above; details: Homo sapiens, Maver1, 264 h, read-out: Tazemetostat 11-day IC50
LP-1 [19] = test: 7 day pretreatment + 4-day co-treatment combination model (Cell Titer Glo); details: Homo sapiens, LP-1, 264 h, read-out: 11-day IC50
RPM18226 = test: cells; details: Multiple myeloma cell, 360 h, read-out: Tazemetostat Day 15 IC50
Granta-519 [20] = test: mantle cell lymphoma 7 day pretreatment + 4-day co-treatment model (Cell Titer Glo); details: Homo sapiens, Granta-519, 264 h, read-out: Tazemetostat 11-day IC50

CCN(c1cc(-c2ccc(CN3CCOCC3)cc2)cc(C(=O)NCc2c(C)cc(C)[nH]c2=O)c1C)C1CCOCC1 [Tazemetostat, tazemetostat]
IC50 (Mino [1]): > 10000 nM | IC50 (MM1R): 58 nM | IC50 (MM1.S [2]): 5400 nM | IC50 (Z-138 [3]): > 10000 nM | IC50 (MOLP2): > 10000 nM | IC50 (Rec-1 [4]): 870 nM | IC50 (KMS12BM): 288 nM | IC50 (MM1S): 340 nM | IC50 (ARH77): 2930 nM | IC50 (MM1.S [5]): 422 nM | IC50 (KMS28BM): 43 nM | IC50 (Jeko-1): > 10000 nM | IC50 (L363): 280 nM | IC50 (L-363 [6]): 728 nM | IC50 (LP-1 [7]): > 10000 nM | IC50 (JJN3): 441 nM | IC50 (Granta-519 [8]): > 10000 nM | IC50 (KMS-28-BM): 365 nM | IC50 (U266 [9]): 1500 nM | IC50 (OPM2): 303 nM | IC50 (Rec-1 [10]): > 3000 nM | IC50 (Z-138 [11]): > 10000 nM | IC50 (NCIH929): > 10000 nM | IC50 (MOLP8): 322 nM | IC50 (U266 [12]): > 10000 nM | IC50 (U266B1): 678 nM | IC50 (JVM-2 [13]): 1400 nM | IC50 (L-363 [14]): 474 nM | IC50 (Maver-1 [15]): > 10000 nM | IC50 (JVM-2 [16]): 120 nM | IC50 (LP1): 2100 nM | IC50 (Mino [17]): 1970 nM | IC50 (Maver-1 [18]): 5610 nM | IC50 (LP-1 [19]): 8410 nM | IC50 (RPM18226): 123 nM | IC50 (Granta-519 [20]): 4240 nM
